# Measurements as given in the supplement of paper PMC12823440, “Inhibitors supercharge kinase turnover through native proteolytic circuits” (Nature, 2025).
# Protein sequences, listed by entry. Tags and fused reporters are not part of them.
# UniProt P22607, whole entry, looked up: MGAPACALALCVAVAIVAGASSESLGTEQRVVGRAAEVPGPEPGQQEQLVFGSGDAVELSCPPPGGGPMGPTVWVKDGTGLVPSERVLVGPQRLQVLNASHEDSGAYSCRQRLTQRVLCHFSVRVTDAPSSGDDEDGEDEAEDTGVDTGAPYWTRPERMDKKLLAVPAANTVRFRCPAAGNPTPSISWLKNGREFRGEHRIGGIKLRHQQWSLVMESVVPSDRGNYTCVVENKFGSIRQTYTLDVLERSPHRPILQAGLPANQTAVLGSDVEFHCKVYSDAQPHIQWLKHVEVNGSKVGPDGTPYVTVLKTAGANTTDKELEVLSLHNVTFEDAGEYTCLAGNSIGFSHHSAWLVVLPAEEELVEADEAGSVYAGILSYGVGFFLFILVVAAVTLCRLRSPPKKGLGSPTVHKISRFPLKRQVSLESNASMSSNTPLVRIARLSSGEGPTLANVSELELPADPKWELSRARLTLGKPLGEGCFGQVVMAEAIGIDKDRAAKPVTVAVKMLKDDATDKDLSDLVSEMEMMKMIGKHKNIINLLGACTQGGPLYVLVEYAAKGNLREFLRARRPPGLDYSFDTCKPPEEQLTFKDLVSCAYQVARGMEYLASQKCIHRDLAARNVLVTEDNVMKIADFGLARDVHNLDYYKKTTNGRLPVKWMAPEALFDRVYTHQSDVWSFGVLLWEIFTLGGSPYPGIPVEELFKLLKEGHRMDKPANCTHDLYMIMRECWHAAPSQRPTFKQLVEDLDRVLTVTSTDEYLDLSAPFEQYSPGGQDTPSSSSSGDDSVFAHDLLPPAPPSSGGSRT
# Counter-ions that a name gives are not always drawn. This is one part of the list. The calls rarely recur for the same compound in another form.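 In K562 cells expressing nanoluciferase-fused kinases, luminescence was recorded at 4 h intervals between 2 and 18 h, normalized as percent of control with DMSO at 100% and a positive control at 0%. A significant (2 sigma) signal drop marks a time point as decreased. The authors' rule for a hit is not shown and takes in more than the number of time points.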
# Target: FGFR3 (UniProt P22607)
# Test: number of time points (of 5) at which kinase-Nluc abundance scored as decreased, DMSO-normalised (count); higher = more persistent destabilization
# Settings: K562; 2-18 h
row,Compound,number of time points
1,"CN1CC[C@H](c2c(O)cc(O)c3c(=O)cc(-c4ccc(C(F)(F)F)cc4Cl)oc23)[C@H]1CO [(2S,3R)-Voruciclib (hydrochloride)] (2.5 µM)",0
2,CCn1nc(C2CCN(C(=O)CCO)CC2)nc1-c1cnc(N)c(-c2nnc(C(C)(C)C)o2)n1 (10 µM),0
3,O=C(O)c1ccccc1Nc1cccc(C(F)(F)F)c1 [Flufenamic acid] (10 µM),0
4,CNC(=O)c1ccc(-c2cnc3cnc(-c4ccccc4)cn23)cc1 (10 µM),0
5,Nc1cccc(S(=O)(=O)N2CCCN(S(=O)(=O)c3ccc4c(c3)OCCO4)CC2)c1 (10 µM),0
6,CC1(COc2ccc3c(c2)ncn3-c2ccc3cccc(N4CCC(N)CC4)c3n2)COC1 [Crenolanib] (2.5 µM),1
7,O=C(CCCCCn1cc(Nc2ncc(Cl)c(Nc3ccc(Cl)cc3)n2)cn1)NO (2.5 µM),0
8,CC(C)n1cnc2c(Nc3cccc(Cl)c3)nc(NCCO)nc21 (10 µM),0
9,COc1ccc(CCNc2ncc3c(=O)n(-c4cccc(F)c4)c(=O)[nH]c3n2)cc1OC (2 µM),0
10,OCCN(CCO)c1ccc(C(c2ccc(Cl)cc2)c2ccc(N(CCO)CCO)cc2)cc1 (10 µM),3
11,CSc1ccc(CN2CCCC(Nc3ccc4[nH]ncc4c3)C2)cc1 (configuration not stated) [Rho-Kinase-IN-1] (10 µM),0
12,COc1cc(C(=O)N2CCC(N3CCN(C)CC3)CC2)ccc1Nc1ncc2c(n1)N(C)c1ccccc1C(=O)N2C (10 µM),0

# Reformatted with tabs: 2 of the compounds above.
row	Compound	number of time points
10	OCCN(CCO)c1ccc(C(c2ccc(Cl)cc2)c2ccc(N(CCO)CCO)cc2)cc1 (10 µM)	3
11	CSc1ccc(CN2CCCC(Nc3ccc4[nH]ncc4c3)C2)cc1 (configuration not stated) [Rho-Kinase-IN-1] (10 µM)	0
